Assay results taken from PMC10618106.
No constants are given. Whether binding was seen depends on the method and setting. Binding seen in cells or lysates may run through a third protein. These calls come from enrichment with a bait or labelling near it, and not all partners need be listed. Where a sequence is shown, tags or fusion partners need not be part of it.

Sequences of proteins named here, by UniProt entry; tags and fusion partners are left off. A change or cut given only in a name is not applied to a line headed by its entry.
UniProt P68400: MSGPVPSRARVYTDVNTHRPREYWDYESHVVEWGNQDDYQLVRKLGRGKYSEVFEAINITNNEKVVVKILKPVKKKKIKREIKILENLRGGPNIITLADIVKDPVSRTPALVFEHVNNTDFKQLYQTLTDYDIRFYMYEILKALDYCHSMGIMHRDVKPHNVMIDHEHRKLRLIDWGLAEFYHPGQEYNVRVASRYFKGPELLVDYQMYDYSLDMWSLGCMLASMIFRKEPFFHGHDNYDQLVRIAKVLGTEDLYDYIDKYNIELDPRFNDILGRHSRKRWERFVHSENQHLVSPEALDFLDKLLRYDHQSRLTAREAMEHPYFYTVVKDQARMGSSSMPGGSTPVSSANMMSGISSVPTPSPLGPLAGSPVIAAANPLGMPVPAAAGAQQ
UniProt P07305: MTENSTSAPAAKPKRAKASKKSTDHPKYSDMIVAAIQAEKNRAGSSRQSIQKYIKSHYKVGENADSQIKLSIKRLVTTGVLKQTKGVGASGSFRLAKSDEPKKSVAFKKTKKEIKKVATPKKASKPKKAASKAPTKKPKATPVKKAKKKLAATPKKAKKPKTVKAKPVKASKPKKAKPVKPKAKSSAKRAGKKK
UniProt P0C0S5: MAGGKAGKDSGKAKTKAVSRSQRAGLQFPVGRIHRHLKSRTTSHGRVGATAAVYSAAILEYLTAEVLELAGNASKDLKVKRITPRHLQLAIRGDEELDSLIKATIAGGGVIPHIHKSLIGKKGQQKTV
UniProt Q09028: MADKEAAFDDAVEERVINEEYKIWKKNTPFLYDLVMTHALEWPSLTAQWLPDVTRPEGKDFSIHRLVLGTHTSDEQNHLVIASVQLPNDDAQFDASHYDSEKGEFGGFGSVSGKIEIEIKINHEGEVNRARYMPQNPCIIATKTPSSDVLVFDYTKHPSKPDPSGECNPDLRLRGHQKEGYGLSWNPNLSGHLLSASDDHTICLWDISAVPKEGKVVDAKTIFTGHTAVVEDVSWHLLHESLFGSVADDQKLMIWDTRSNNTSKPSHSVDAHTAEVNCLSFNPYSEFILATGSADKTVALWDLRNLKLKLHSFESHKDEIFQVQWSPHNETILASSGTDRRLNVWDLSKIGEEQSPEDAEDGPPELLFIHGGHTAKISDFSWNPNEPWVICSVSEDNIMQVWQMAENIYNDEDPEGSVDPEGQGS
UniProt P28370: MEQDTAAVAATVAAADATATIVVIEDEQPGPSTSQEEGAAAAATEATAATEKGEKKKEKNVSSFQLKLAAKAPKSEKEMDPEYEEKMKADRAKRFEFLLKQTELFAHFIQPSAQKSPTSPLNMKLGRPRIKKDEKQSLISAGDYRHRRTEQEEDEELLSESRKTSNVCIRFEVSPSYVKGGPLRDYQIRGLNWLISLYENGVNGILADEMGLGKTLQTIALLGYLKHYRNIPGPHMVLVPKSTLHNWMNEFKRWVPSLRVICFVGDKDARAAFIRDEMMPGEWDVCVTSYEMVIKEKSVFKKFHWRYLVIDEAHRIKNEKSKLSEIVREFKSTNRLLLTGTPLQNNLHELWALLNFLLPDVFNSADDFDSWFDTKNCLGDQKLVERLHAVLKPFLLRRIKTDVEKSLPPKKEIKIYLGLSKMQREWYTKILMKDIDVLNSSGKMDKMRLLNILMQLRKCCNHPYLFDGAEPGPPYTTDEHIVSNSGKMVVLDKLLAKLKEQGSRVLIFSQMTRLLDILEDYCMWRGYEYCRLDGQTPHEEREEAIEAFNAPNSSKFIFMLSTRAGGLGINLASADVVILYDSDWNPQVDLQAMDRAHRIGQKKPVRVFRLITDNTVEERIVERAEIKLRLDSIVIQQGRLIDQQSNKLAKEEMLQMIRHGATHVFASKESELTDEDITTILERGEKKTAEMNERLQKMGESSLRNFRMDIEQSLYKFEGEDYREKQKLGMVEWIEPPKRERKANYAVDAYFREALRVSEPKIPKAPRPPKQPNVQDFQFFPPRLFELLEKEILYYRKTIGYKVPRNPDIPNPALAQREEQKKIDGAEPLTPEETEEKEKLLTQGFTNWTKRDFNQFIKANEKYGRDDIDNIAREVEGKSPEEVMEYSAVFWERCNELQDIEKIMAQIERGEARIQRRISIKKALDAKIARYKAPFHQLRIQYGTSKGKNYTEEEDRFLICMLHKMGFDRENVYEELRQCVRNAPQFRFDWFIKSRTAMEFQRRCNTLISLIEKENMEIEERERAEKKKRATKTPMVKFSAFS
UniProt O15446: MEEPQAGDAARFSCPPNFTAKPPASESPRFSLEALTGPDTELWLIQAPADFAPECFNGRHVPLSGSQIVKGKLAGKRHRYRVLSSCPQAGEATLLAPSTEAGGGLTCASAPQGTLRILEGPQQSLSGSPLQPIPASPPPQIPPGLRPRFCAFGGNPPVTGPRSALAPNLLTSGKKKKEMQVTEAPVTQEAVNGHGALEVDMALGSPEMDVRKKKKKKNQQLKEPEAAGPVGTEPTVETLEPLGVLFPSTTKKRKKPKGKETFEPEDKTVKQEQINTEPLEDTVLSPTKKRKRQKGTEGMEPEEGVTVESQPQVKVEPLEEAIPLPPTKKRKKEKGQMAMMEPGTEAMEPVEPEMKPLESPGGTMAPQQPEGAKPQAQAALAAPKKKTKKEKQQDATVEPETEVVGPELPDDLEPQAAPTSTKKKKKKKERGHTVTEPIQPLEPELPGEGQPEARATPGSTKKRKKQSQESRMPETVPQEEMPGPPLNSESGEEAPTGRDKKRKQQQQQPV
UniProt P16402: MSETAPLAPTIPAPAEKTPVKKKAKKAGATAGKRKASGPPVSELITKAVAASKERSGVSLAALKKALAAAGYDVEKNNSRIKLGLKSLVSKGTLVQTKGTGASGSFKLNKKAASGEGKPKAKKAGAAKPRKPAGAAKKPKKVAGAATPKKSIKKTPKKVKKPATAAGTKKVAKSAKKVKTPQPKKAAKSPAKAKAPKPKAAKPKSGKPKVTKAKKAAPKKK
UniProt P35249: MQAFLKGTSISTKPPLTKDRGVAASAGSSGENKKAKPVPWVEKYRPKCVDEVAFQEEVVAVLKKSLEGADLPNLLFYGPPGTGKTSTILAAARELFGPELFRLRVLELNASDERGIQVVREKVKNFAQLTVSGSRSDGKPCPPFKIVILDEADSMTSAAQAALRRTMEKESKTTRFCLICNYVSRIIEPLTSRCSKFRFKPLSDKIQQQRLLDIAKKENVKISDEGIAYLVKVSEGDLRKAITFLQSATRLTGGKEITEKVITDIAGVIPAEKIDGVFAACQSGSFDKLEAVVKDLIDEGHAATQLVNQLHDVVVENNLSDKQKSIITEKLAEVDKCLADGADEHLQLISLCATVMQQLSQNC
UniProt P51532: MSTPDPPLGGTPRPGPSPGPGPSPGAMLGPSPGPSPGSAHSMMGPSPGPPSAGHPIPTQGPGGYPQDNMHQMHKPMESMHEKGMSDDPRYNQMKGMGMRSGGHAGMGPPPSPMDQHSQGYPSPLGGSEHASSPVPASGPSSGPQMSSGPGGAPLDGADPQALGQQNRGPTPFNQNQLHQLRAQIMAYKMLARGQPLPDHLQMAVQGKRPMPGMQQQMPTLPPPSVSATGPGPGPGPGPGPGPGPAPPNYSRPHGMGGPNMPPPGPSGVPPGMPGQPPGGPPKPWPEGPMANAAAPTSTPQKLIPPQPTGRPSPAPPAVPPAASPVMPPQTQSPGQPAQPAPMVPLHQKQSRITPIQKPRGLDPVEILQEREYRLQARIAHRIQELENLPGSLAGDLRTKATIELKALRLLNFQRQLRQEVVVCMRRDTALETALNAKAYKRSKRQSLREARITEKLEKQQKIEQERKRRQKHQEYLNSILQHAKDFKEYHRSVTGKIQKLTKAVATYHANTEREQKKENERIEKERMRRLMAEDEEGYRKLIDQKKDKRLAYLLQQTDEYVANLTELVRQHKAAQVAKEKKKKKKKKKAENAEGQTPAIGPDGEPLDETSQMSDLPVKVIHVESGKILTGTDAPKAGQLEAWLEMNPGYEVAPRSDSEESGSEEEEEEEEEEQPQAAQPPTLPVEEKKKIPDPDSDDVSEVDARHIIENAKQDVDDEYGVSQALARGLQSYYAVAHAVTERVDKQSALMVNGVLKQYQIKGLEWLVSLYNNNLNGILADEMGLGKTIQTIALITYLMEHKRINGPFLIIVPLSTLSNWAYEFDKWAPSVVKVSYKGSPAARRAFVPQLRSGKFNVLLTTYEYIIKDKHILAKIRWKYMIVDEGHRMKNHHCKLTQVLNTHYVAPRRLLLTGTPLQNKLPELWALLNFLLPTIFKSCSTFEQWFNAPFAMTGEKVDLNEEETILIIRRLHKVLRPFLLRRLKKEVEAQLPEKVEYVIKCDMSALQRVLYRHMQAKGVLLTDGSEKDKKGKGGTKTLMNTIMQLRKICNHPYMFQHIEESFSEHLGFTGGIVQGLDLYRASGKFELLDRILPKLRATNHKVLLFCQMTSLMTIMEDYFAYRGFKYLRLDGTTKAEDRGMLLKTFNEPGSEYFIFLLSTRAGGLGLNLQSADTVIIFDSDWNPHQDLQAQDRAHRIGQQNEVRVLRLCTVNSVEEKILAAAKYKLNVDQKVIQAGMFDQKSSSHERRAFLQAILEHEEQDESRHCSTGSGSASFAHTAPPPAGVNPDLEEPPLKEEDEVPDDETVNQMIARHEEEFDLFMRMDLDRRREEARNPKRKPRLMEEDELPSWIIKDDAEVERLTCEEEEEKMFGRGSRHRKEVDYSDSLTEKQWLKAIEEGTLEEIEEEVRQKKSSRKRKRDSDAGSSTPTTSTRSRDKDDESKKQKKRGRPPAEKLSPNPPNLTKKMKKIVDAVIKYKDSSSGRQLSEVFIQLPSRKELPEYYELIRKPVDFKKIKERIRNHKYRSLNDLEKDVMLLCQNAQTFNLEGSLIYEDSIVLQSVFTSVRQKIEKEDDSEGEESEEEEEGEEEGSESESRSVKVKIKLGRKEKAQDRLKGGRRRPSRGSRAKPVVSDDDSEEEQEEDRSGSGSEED
UniProt O00268: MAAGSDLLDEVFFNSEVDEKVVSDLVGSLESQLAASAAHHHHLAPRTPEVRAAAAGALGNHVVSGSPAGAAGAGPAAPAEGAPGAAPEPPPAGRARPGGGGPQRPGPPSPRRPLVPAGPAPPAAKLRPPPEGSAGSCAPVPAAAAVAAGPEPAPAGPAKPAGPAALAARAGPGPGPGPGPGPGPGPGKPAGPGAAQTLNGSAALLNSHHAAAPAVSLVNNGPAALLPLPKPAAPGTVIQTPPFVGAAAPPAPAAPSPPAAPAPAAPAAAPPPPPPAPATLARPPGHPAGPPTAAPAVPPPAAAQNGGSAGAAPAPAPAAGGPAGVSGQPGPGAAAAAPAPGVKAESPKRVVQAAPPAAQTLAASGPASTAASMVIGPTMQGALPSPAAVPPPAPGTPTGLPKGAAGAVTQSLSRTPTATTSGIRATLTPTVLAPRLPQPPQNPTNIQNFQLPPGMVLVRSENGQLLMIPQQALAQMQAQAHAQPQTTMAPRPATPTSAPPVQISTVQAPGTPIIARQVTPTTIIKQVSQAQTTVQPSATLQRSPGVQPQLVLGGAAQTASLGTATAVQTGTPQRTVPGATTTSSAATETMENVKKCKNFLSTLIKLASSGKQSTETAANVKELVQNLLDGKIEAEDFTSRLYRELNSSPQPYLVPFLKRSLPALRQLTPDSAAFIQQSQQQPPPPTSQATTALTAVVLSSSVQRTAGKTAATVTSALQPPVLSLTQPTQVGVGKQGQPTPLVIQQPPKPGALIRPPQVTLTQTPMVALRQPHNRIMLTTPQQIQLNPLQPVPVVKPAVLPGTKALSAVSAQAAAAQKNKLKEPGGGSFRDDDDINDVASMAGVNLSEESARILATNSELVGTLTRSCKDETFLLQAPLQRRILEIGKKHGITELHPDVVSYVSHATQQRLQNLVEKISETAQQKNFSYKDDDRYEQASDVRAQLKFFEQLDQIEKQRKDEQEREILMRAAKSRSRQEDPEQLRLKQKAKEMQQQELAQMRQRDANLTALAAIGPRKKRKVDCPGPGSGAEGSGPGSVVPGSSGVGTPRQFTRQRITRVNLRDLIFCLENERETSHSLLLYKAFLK
UniProt Q8WXI9: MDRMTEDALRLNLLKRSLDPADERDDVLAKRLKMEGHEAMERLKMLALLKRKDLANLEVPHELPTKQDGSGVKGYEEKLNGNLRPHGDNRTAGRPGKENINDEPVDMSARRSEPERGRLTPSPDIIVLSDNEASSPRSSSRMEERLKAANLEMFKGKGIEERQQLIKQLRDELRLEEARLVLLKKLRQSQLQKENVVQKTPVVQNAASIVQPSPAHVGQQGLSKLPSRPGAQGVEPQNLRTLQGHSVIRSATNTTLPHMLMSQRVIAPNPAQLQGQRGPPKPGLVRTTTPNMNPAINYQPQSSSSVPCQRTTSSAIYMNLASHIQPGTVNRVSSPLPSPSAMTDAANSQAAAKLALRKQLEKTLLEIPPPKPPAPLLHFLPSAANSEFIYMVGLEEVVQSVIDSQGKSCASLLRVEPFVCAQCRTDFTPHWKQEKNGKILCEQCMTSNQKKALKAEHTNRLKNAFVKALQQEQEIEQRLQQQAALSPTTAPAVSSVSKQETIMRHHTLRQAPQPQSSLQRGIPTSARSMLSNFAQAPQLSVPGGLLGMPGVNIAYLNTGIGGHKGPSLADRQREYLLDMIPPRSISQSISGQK

Biological target: FLAG-tagged CK2α (human) (UniProt P68400)
Assay: affinity purification with mass spectrometry; FLAG-CK2α expressed in HEK293; nuclear fractions of cells starved and restimulated with serum to early G1 (6 h) or late G1 (15-16 h); pre-cleared with normal IgG-agarose, anti-FLAG M2 agarose, eluted with FLAG peptide, trypsin, nano-LC MS/MS (Mascot)

Molecule	binding
ATP-dependent RNA helicase DDX3X (from UniProt O00571 1-662)	binds
DDX17 (from UniProt Q92841 1-729)	binds
DDX21 (from UniProt Q9NR30 1-783)	binds
Eukaryotic initiation factor 4A-I (from UniProt P60842 1-406)	binds
FACT complex subunit SSRP1 (from UniProt Q08945 1-709)	binds
General transcription factor II-I (from UniProt P78347 1-998)	binds
Heterochromatin protein 1-binding protein 3 (from UniProt Q5SSJ5 1-553)	binds
Histone H1.0 (from UniProt P07305 1-194)	binds
Histone H1.2 (from UniProt P16403 1-213)	binds
Histone H2A.Z (from UniProt P0C0S5 1-128)	binds
Histone-binding protein RBBP4 (from UniProt Q09028 1-425)	binds
Mediator of DNA damage checkpoint protein 1 (MDC1) (from UniProt Q14676 1-2089)	binds
Methylosome protein 50 (WDR77) (from UniProt Q9BQA1 1-342)	binds
Nipped-B-like protein (from UniProt Q6KC79 1-2804)	binds
Probable global transcription activator SNF2L1 (from UniProt P28370 1-1042)	binds
U5 small nuclear ribonucleoprotein 200-kD helicase (from UniProt O75643 1-2136)	binds
X-ray repair cross-complementing protein 6 (from UniProt P12956 1-609)	binds
Barrier-to-autointegration factor (protein, UniProt O75531 1-89) MTTSQKHRDFVAEPMGEKPVGSLAGIGEVLGKKLEERGFDKAYVVLGQFLVLKKDEDLFREWLKDTCGANAKQSRDCFGCLREWCDAFL	binds

Second part, the molecule after the results:

binding	Molecule
binds	Bcl-2-associated transcription factor 1 (from UniProt Q9NYF8 1-920)
binds	DDX39B (from UniProt Q13838 1-428)
binds	DNA topoisomerase 2-beta (from UniProt Q02880 1-1626)
binds	DNA-directed RNA polymerase I subunit RPA34 (from UniProt O15446 1-510)
binds	FACT complex subunit SPT16 (from UniProt Q9Y5B9 1-1047)
binds	Histone H1.3 (from UniProt P16402 1-221)
binds	Histone deacetylase 2 (HDAC2) (from UniProt Q92769 1-488)
binds	NOLC1 (from UniProt Q14978 1-699)
binds	NPM1 (from UniProt P06748 1-294)
binds	PARP1 (from UniProt P09874 1-1014)
binds	Protein arginine N-methyltransferase 5 (from UniProt O14744 1-637)
binds	Putative pre-mRNA splicing factor ATP-dependent RNA helicase DHX15 (from UniProt O43143 1-795)
binds	Replication factor C subunit 4 (from UniProt P35249 1-363)
binds	Replication protein A 70 kD DNA-binding subunit (from UniProt P27694 1-616)
binds	RuvB-like 1 (from UniProt Q9Y265 1-456)
binds	SWI/SNF-related matrix-associated actin-dependent regulator of chromatin subfamily E member 1 (from UniProt Q969G3 1-411)
binds	Splicing factor 3B subunit 1 (from UniProt O75533 1-1304)
binds	Splicing factor 3B subunit 2 (from UniProt Q13435 1-895)
binds	Transcription activator BRG1 (from UniProt P51532 1-1647)
binds	Transcription initiation factor TFIID subunit 4 (from UniProt O00268 1-1085)
binds	Transcription intermediary factor 1-beta (from UniProt Q13263 1-835)
binds	Transcriptional regulator ATRX (from UniProt P46100 1-2492)
binds	Transcriptional repressor p66-beta (from UniProt Q8WXI9 1-593)
binds	rRNA 2′-O-methyltransferase fibrillarin (protein, UniProt P22087 1-321) MKPGFSPRGGGFGGRGGFGDRGGRGGRGGFGGGRGRGGGFRGRGRGGGGGGGGGGGGGRGGGGFHSGGNRGRGRGGKRGNQSGKNVMVEPHRHEGVFICRGKEDALVTKNLVPGESVYGEKRVSISEGDDKIEYRAWNPFRSKLAAAILGGVDQIHIKPGAKVLYLGAASGTTVSHVSDIVGPDGLVYAVEFSHRSGRDLINLAKKRTNIIPVIEDARHPHKYRMLIAMVDVIFADVAQPDQTRIVALNAHTFLRNGGHFVISIKANCIDSTASAEAVFASEVKKMQQENMKPQEQLTLEPYERDHAVVVGVYRPPPKVKN
binds	Structural maintenance of chromosomes protein 1A (protein, UniProt Q14683 1-1233) MGFLKLIEIENFKSYKGRQIIGPFQRFTAIIGPNGSGKSNLMDAISFVLGEKTSNLRVKTLRDLIHGAPVGKPAANRAFVSMVYSEEGAEDRTFARVIVGGSSEYKINNKVVQLHEYSEELEKLGILIKARNFLVFQGAVESIAMKNPKERTALFEEISRSGELAQEYDKRKKEMVKAEEDTQFNYHRKKNIAAERKEAKQEKEEADRYQRLKDEVVRAQVQLQLFKLYHNEVEIEKLNKELASKNKEIEKDKKRMDKVEDELKEKKKELGKMMREQQQIEKEIKEKDSELNQKRPQYIKAKENTSHKIKKLEAAKKSLQNAQKHYKKRKGDMDELEKEMLSVEKARQEFEERMEEESQSQGRDLTLEENQVKKYHRLKEEASKRAATLAQELEKFNRDQKADQDRLDLEERKKVETEAKIKQKLREIEENQKRIEKLEEYITTSKQSLEEQKKLEGELTEEVEMAKRRIDEINKELNQVMEQLGDARIDRQESSRQQRKAEIMESIKRLYPGSVYGRLIDLCQPTQKKYQIAVTKVLGKNMDAIIVDSEKTGRDCIQYIKEQRGEPETFLPLDYLEVKPTDEKLRELKGAKLVIDVIRYEPPHIKKALQYACGNALVCDNVEDARRIAFGGHQRHKTVALDGTLFQKSGVISGGASDLKAKARRWDEKAVDKLKEKKERLTEELKEQMKAKRKEAELRQVQSQAHGLQMRLKYSQSDLEQTKTRHLALNLQEKSKLESELANFGPRINDIKRIIQSREREMKDLKEKMNQVEDEVFEEFCREIGVRNIREFEEEKVKRQNEIAKKRLEFENQKTRLGIQLDFEKNQLKEDQDKVHMWEQTVKKDENEIEKLKKEEQRHMKIIDETMAQLQDLKNQHLAKKSEVNDKNHEMEEIRKKLGGANKEMTHLQKEVTAIETKLEQKRSDRHNLLQACKMQDIKLPLSKGTMDDISQEEGSSQGEDSVSGSQRISSIYAREALIEIDYGDLCEDLKDAQAEEEIKQEMNTLQQKLNEQQSVLQRIAAPNMKAMEKLESVRDKFQETSDEFEAARKRAKKAKQAFEQIKKERFDRFNACFESVATNIDEIYKALSRNSSAQAFLGPENPEEPYLDGINYNCVAPGKRFRPMDNLSGGEKTVAALALLFAIHSYKPAPFFVLDEIDAALDNTNIGKVANYIKEQSTCNFQAIVISLKEEFYTKAESLIGVYPEQGDCVISKVLTFDLTKYPDANPNPNEQ
binds	Replication factor C subunit 1 (protein, UniProt P35251 1-1148) MDIRKFFGVIPSGKKLVSETVKKNEKTKSDEETLKAKKGIKEIKVNSSRKEDDFKQKQPSKKKRIIYDSDSESEETLQVKNAKKPPEKLPVSSKPGKISRQDPVTYISETDEEDDFMCKKAASKSKENGRSTNSHLGTSNMKKNEENTKTKNKPLSPIKLTPTSVLDYFGTGSVQRSNKKMVASKRKELSQNTDESGLNDEAIAKQLQLDEDAELERQLHEDEEFARTLAMLDEEPKTKKARKDTEAGETFSSVQANLSKAEKHKYPHKVKTAQVSDERKSYSPRKQSKYESSKESQQHSKSSADKIGEVSSPKASSKLAIMKRKEESSYKEIEPVASKRKENAIKLKGETKTPKKTKSSPAKKESVSPEDSEKKRTNYQAYRSYLNREGPKALGSKEIPKGAENCLEGLIFVITGVLESIERDEAKSLIERYGGKVTGNVSKKTNYLVMGRDSGQSKSDKAAALGTKIIDEDGLLNLIRTMPGKKSKYEIAVETEMKKESKLERTPQKNVQGKRKISPSKKESESKKSRPTSKRDSLAKTIKKETDVFWKSLDFKEQVAEETSGDSKARNLADDSSENKVENLLWVDKYKPTSLKTIIGQQGDQSCANKLLRWLRNWQKSSSEDKKHAAKFGKFSGKDDGSSFKAALLSGPPGVGKTTTASLVCQELGYSYVELNASDTRSKSSLKAIVAESLNNTSIKGFYSNGAASSVSTKHALIMDEVDGMAGNEDRGGIQELIGLIKHTKIPIICMCNDRNHPKIRSLVHYCFDLRFQRPRVEQIKGAMMSIAFKEGLKIPPPAMNEIILGANQDIRQVLHNLSMWCARSKALTYDQAKADSHRAKKDIKMGPFDVARKVFAAGEETAHMSLVDKSDLFFHDYSIAPLFVQENYIHVKPVAAGGDMKKHLMLLSRAADSICDGDLVDSQIRSKQNWSLLPAQAIYASVLPGELMRGYMTQFPTFPSWLGKHSSTGKHDRIVQDLALHMSLRTYSSKRTVNMDYLSLLRDALVQPLTSQGVDGVQDVVALMDTYYLMKEDFENIMEISSWGGKPSPFSKLDPKVKAAFTRAYNKEAHLTPYSLQAIKASRHSTSPSLDSEYNEELNEDDSQSDEKDQDAIETDAMIKKKTKSSKPSKPEKDKEPRKGKGKSSKK
binds	Histone deacetylase complex subunit SAP18 (protein, UniProt O00422 1-153) MAVESRVTQEEIKKEPEKPIDREKTCPLLLRVFTTNNGRHHRMDEFSRGNVPSSELQIYTWMDATLKELTSLVKEVYPEARKKGTHFNFAIVFTDVKRPGYRVKEIGSTMSGRKGTDDSMTLQSQKFQIGDYLDIAITPPNRAPPPSGRMRPY
